Laboratory results published in publication PMC11549447.
Changes are numbered by the printed parent chain. Results are given in words; binding and its absence hold for the method and conditions named. In cells and extracts the contact can be indirect. Some results given as binding are weak or reduced against the parent protein; the word gives no strength. For some assays here: Sequences can lack the tags named with a protein.

Chains of the proteins cited; added tags and fusions are not shown.
UniProt P04150: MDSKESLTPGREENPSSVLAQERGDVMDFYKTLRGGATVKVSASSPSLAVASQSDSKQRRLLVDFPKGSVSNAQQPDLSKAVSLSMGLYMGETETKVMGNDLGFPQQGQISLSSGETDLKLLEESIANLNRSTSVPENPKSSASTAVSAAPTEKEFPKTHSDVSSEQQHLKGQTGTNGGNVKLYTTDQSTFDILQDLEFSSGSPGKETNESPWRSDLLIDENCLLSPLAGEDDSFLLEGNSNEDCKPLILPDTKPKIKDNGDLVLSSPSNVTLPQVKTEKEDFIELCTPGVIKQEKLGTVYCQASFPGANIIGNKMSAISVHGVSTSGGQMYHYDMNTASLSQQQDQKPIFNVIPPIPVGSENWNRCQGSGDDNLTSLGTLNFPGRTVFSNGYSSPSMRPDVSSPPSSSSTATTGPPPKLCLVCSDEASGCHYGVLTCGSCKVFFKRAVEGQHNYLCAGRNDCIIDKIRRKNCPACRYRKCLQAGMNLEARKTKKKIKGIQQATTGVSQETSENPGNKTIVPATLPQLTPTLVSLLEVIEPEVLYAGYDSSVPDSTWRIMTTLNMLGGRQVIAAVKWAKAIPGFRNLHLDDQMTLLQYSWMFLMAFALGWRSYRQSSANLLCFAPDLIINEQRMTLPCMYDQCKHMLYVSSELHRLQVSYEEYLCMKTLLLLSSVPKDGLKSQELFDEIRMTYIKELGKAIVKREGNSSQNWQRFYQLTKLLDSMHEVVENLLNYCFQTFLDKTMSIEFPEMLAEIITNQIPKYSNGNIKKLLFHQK

Key:
[1] = target: T1, PP5-FLAG-K430R, non-SUMOylatable mutant (UniProt P53041); assay: co-IP; PP5-FLAG WT or K430R isolated from HEK293 cells, incubated with ATP with or without recombinant SUMO-1 (in vitro SUMOylation kit, 37 °C, 60 min); FLAG IP, GR by immunoblot
T1 sequence: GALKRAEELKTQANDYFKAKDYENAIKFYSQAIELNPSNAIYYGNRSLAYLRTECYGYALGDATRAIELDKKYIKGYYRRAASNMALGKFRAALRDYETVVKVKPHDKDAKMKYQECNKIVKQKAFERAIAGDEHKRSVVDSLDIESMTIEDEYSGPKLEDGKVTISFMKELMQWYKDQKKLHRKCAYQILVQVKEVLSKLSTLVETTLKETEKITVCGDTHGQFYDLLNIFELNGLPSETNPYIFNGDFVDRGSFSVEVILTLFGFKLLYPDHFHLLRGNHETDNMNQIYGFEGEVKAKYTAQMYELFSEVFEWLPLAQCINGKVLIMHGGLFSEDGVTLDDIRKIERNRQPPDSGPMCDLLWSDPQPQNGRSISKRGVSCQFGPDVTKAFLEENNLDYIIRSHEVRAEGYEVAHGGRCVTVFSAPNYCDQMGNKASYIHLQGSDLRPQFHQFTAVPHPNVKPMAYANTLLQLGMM

[2] = target: T2, serine/threonine protein phosphatase 5 (PP5), wild-type PP5-FLAG (UniProt P53041); assay: as above
T2 sequence: T1 sequence with R408K

[3] = target: hyper-SUMOylated PP5-WT: PP5-FLAG SUMOylated in vitro with recombinant SUMO-1 (UniProt P53041); assay: as above
[4] = target: T3, PP5-FLAG-K430Q (UniProt P53041); assay: co-IP; anti-FLAG agarose IP of PP5-FLAG (WT or mutants) from lysate of transfected HEK293 cells, 2 h at 4 °C; washes in 20 mM Tris-HCl pH 7.4, 100 mM NaCl, 1 mM MgCl2, 0.1% NP40; endogenous partners by immunoblot; some panels with CK1δ-myc co-expressed or 2 µM IC261 for 16 h
T3 sequence: T1 sequence with R408Q

[5] = target: T4, PP5-FLAG-T362E-K430R double mutant (UniProt P53041); assay: as above
T4 sequence: T1 sequence with T340E

binding [1]: binds
binding [2]: binds
binding [3]: no binding
binding [4]: binds
binding [5]: binds
Substance: glucocorticoid receptor (GR), endogenous (from UniProt P04150 1-777)
